System: autoimmune antibodies (anti-CCP antibody) in serum samples
Assay: Sensitivity, specificity, AUC, PPR and NPR from ROC curves of the ELISA results; McNemer test between assays
Set-up: species or system human; AUC: unit not given beside the values
Details: for AUC: ROC curve
Protocol: A ROC curve as a plot of the relation between sensitivity and specificity in a specific diagnostic test may represent the diagnostic accuracy of a specific diagnostic model. The ROC may be a graph generated by plotting sensitivity of all possible cut-off points for a specific diagnostic model on Y-axis against 1-specificity on X-axis. The specific diagnostic model may be a diagnostic model for rheumatoid arthritis in which a specific level of anti-CCP antibody is determined as a cut-off level for positivity with disease (abnormal) and/or negativity without disease (normal patients). The larger the area under the ROC curve (AUC), the higher the accuracy of the determined diagnostic model. With the assumption that a total area of the ROC curve is 1, a diagnostic model may be determined as having high accuracy when the AUC is 0.5 or greater, 0.6 or greater, 0.7 or greater, 0.8 or greater, or 0.9 or greater. A diagnostic model may be determined as a higher accuracy when it is closer to the upper left corner of the ROC.
The term “sensitivity” may refer to the probability that an individual with the disease will test positive in a specific diagnostic model.
The term “specificity” may refer to the probability that a disease-free individual will test negative in a specific diagnostic model.
FIGS. 2A and 2B are graphs of sensitivity and specificity, respectively, of the peptides treated in the samples of various types of arthritis patients, calculated based on the ROC curves plotted using the results of Table 3. […] Therefore, it was identified that the C-terminal domain of amino acid sequence of CCP may play an important role in the binding of autoimmune antibodies.
FIGS. 4A, 4B, and 4C show ROC curves of CCP, and CCP10P and CCP11A as modified CCPs including substituted amino acid, respectively, in RA patient samples with respect to normal patient samples. FIGS. 4D, 4E, and 4F show ROC curves of CCP, and CCP10P and CCP11A, respectively, in RA patient samples with respect to OA patient samples. AUCs, positive prediction rates (PPR, %), and negative prediction rates (NPR, %) obtained from the ROC curves of FIGS. 4A to 4F are shown in Table 5.
The statistical significances were calculated using the McNemer test. The McNemer test is a test on a 2×2 table to calculate a difference between paired two tests and a statistical significance level. […] Referring to FIG. 5B, a p-value between the results of the two assays with CCP and CCP10P in the RA patient samples with respect to OA patient samples as control group was about 0.004, and a difference therebetween was about 37.78%. A p-value between the results of the two assays with CCP and CCP11A in the RA patient samples with respect to OA patient samples was about 0.04, and a difference therebetween was about 26.67%.

[1] = RA patient samples, control group Normal
[2] = OA patient samples with respect to normal
[3] = RA patient samples, control group OA
[4] = SLE patient samples with respect to normal
[5] = RA patient samples, OA patient samples as control group
[6] = with respect to the RA, normal control

ZZH19: ZZHSHQESTXGRSRGSGZZ; aminocaproic acid (Z) added to N- and C-terminals of HSH15
Specificity [1]: about 84.6%

ZZH17: ZZHSHQESTXGRSRGSG; aminocaproic acid (Z) added to N-terminal of HSH15
Specificity [1]: about 80.8%

CCP: cyclic citrullinated peptide HCHQESTXGRSRGCG, X citrulline [reference compound]
Sensitivity [2]: about 93.3%
Specificity [2]: about 88.5%
NPR (negative prediction rate) [1]: 88%
PPR (positive prediction rate) [1]: 93.3%
NPR (negative prediction rate) [3]: 60%
PPR (positive prediction rate) [3]: 70%
Sensitivity [3]: 70.0%
Specificity [3]: 60.0%
AUC [1]: 0.9718
Sensitivity [4]: about 100%
Specificity [4]: about 84.6%

CCP12P: HCHQESTXGRSPGCG; CCP with 12th amino acid substituted by proline
Specificity [1]: about 100%

RF: rheumatoid factor peptide EGLHNHY (listed as Homo sapiens) [reference compound]
Sensitivity [1]: lower sensitivity
Specificity [1]: lower specificity than CCP

CCPPAP: HCHQESTXGPAPGCG; CCP with 10th, 11th, 12th amino acids substituted by proline, alanine, proline
Specificity [1]: about 100%

HSH17: HSHQESTXGRSRGSGZZ; aminocaproic acid (Z) added to C-terminal of HSH15
Sensitivity [2]: about 100%
Specificity [2]: ~73.1%
Sensitivity [1]: about 100%
Specificity [1]: about 69.2%
Sensitivity [4]: about 100%
Specificity [4]: about 69.2%

CCP11A: HCHQESTXGRARGCG; CCP with 11th amino acid serine substituted by alanine
Difference between the results of the assay with CCP and this peptide (McNemer test) [5]: about 26.67%
PPR (positive prediction rate) [1]: 86.7%
Sensitivity [1]: 86.7%
PPR (positive prediction rate) [3]: 63.3%
Sensitivity [3]: 63.3%
AUC larger than that of CCP by (RA patients with respect to OA patient samples): about 0.0797
AUC larger than that of CCP by (RA patients with respect to normal patient samples): about 0.0038
Specificity higher than CCP by [6]: about 11.5%

CCP10P: HCHQESTXGPSRGCG; CCP with 10th amino acid arginine substituted by proline
Difference between the results of the assay with CCP and this peptide (McNemer test) [5]: about 37.78%
NPR (negative prediction rate) [1]: 76%
PPR (positive prediction rate) [1]: 83.3%
Sensitivity [1]: 83.3%
NPR (negative prediction rate) [3]: 93.3%
PPR (positive prediction rate) [3]: 30%
Sensitivity [3]: 30.0%
Specificity [3]: 93.3%
Difference between the results of the assay with CCP and this peptide (McNemer test) (RA patient samples, normal patient samples as control group): 0.0%
AUC [1]: 0.8370
AUC [3]: 0.5030
Specificity lower than CCP by [6]: about 11.6%

Source: patent publication US10266568B2, “Cyclic citrullinated peptide, rheumatoid arthritis diagnosis composition including the same, rheumatoid arthritis diagnosis method using the peptide or the composition, and method of screening diagnostic marker for rheumatoid arthritis” (KOREA INSTITUTE OF SCIENCE AND TECHNOLOGY, priority 2015, dated 2019)
